PubChem BioAssay AID1159578 – Peter MacCallum Cancer Centre – 2015
Purpose: 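Knock-downs that alter how fast lymphatic endothelial cells migrate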 (primary screen). Cell system: human lymphatic endothelial cells. Reagents: siRNA pool against human genes, 40 nM. Time to read-out: 48 h after transfection. Detection: 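High-content imaging of dye-stained cells in a scratch assay measures filled wound area and nuclei per well; duplicate means given as ratio to mock and robust z-score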. Direction: migration robust z-score: higher = faster migration into the scratch; nuclei per well: higher = more cells in the well. Active means: 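Pools averaging fewer than 3300 nuclei are never called; remaining pools count as changed when migration robust z lies outside -2 to 2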. Meaning of the calls: active = migration changed; inactive = no migration change, or too few cells.
In all, the deposit lists about 18,000 reagents; shown is an unselected part. Of all reagents, about 1,030 (5.7%) were called active. 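Inactive calls also include pools with fewer than 3300 nuclei, whose migration was not assessed.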 Raw values are not corrected between plates. Further read-outs or replicates are left out here. No sequences are given here.

{"target":"ZNF70 (zinc finger protein 70)","migration robust z-score":0.82,"nuclei per well, duplicate mean":5874,"outcome":"inactive"}
{"target":"GDPGP1 (GDP-D-glucose phosphorylase 1)","migration robust z-score":-1.14,"nuclei per well, duplicate mean":3054,"outcome":"inactive"}
{"target":"PARVA (parvin alpha)","migration robust z-score":-0.21,"nuclei per well, duplicate mean":4710,"outcome":"inactive"}
{"target":"KIR2DL1","migration robust z-score":-0.62,"nuclei per well, duplicate mean":5619,"outcome":"inactive"}
{"target":"DYNLT4 (dynein light chain Tctex-type 4)","migration robust z-score":1.95,"nuclei per well, duplicate mean":7662,"outcome":"inactive"}
{"target":"IFITM3 (interferon induced transmembrane protein 3)","migration robust z-score":-0.58,"nuclei per well, duplicate mean":4704,"outcome":"inactive"}
{"target":"EXOC3L4 (exocyst complex component 3 like 4)","migration robust z-score":-0.48,"nuclei per well, duplicate mean":6406,"outcome":"inactive"}
{"target":"RBMY1J (RNA binding motif protein Y-linked family 1 member J)","migration robust z-score":2.62,"nuclei per well, duplicate mean":6321,"outcome":"active"}
{"target":"RBPMS (RNA binding protein, mRNA processing factor)","migration robust z-score":0.98,"nuclei per well, duplicate mean":4666,"outcome":"inactive"}
{"target":"SAT2 (spermidine/spermine N1-acetyltransferase family member 2)","migration robust z-score":1.92,"nuclei per well, duplicate mean":6949,"outcome":"inactive"}
{"target":"LARS2 (leucyl-tRNA synthetase 2, mitochondrial)","migration robust z-score":0.21,"nuclei per well, duplicate mean":4949,"outcome":"inactive"}
{"target":"INKA1 (inka box actin regulator 1)","migration robust z-score":0.86,"nuclei per well, duplicate mean":5525,"outcome":"inactive"}

Part of the list above in another layout.
target | migration robust z-score | nuclei per well, duplicate mean | outcome
PARVA (parvin alpha) | -0.21 | 4710 | inactive
KIR2DL1 | -0.62 | 5619 | inactive
